# Data published in patent US8106007B2, “Conjugates of a polypeptide and a pentasaccharide” (N.V. Organon, priority 2005, dated 2012).
# Sequences of proteins named here, by UniProt entry; tags and fusion partners are left off. Residues count along the entry.
# UniProt P01008, 33-464: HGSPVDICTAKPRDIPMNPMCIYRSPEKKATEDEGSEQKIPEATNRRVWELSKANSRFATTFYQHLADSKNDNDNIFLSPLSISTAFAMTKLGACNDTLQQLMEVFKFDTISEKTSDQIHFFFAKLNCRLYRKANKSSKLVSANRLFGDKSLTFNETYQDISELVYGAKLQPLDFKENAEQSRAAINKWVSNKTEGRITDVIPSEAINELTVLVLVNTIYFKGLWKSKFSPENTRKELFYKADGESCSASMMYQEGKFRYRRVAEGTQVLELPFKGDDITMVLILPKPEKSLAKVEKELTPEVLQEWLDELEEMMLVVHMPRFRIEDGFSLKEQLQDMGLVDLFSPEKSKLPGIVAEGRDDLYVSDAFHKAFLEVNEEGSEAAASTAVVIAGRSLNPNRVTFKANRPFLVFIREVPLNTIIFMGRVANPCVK
# For at least one compound, name, drawing or mass did not settle the structure. Where a SMILES comes first, the peptide text is derived from it. The star is where a group is joined. X1 = CO[C@H]1O[C@H](COS(=O)(=O)O)[C@@H](O[C@@H]2O[C@@H](C(=O)O)[C@@H](O[C@H]3O[C@H](COS(=O)(=O)O)[C@@H](O[C@@H]4O[C@H](C(=O)O)[C@@H](O[C@H]5O[C@H](COS(=O)(=O)O)[C@@H](OCCOCCOCCOCCNC(=O)COCCOCCOCCOCCSC6CC(=O)N(CCCC(=O)*)C6=O)[C@H](OC)[C@H]5OC)[C@H](OC)[C@H]4OC)[C@H](OS(=O)(=O)O)[C@H]3OS(=O)(=O)O)[C@H](OC)[C@H]2OC)[C@H](OS(=O)(=O)O)[C@H]1OS(=O)(=O)O
# Biological target: hATIII (Homo sapiens, UniProt P01008)
# Assay: Competitive hATIII binding assay using Biomolecular Interaction Analysis (BIA)
# Settings: compared to parent pentasaccharide-spacer residue / parent peptide
# Protocol: The sensorgrams and report points were analysed with blanc flow cell subtraction using BIAevaluation 3.2. IC50 values were calculated using graphpad Prism 3.0.
# Principle and aim of the test: Biomolecular Interaction Analysis (BIA) studies the interaction between (bio)molecules by covalent immobilisation of one of the interactants to a sensor chip surface, and injection of the other interactant in the continuous buffer flow over this surface. Binding is registered as a change in refractive index on this surface and is proportional to the molecular weight (Mw) of the interactants.
# To study the interaction between hATIII and pentasaccharide conjugates, compound 9 is covalently coupled to the sensor chip surface. Binding of hATIII to the pentasaccharide generates a strong signal as a resultant of the difference in Mw between the bound (small) pentasaccharide ligand and the (large) hATIII analyte. Preincubated samples containing a constant concentration of hATIII and variable concentrations of free pentasaccharide or conjugate were injected over the surface. Binding of pentasaccharide or conjugate to ATIII during preincubation will result in a reduction of ATIII binding to the immobilised pentasaccharide. This competitive binding assay allows determination of IC50 values for each pentasaccharide conjugate. […]
structure (smiles),measurement,value
CC[C@H](C)[C@H](NC(=O)[C@H](CCC(N)=O)NC(=O)[C@H](Cc1c[nH]cn1)NC(=O)[C@H](C)NC(=O)CCCN1C(=O)CC(SCCOCCOCCOCCOCC(=O)NCCOCCOCCOCCO[C@H]2[C@H](OC)[C@@H](OC)[C@@H](O[C@H]3[C@H](OC)[C@@H](OC)[C@H](O[C@H]4[C@H](OS(=O)(=O)O)[C@@H](OS(=O)(=O)O)[C@@H](O[C@H]5[C@H](OC)[C@@H](OC)[C@H](O[C@H]6[C@H](OS(=O)(=O)O)[C@@H](OS(=O)(=O)O)[C@@H](OC)O[C@@H]6COS(=O)(=O)O)O[C@H]5C(=O)O)O[C@@H]4COS(=O)(=O)O)O[C@@H]3C(=O)O)O[C@@H]2COS(=O)(=O)O)C1=O)C(=O)N[C@@H](Cc1ccc(O)cc1)C(=O)N[C@@H](CCC(N)=O)C(=O)N[C@@H](Cc1ccccc1)C(=O)N[C@H](C(=O)N[C@@H](CC(=O)O)C(=O)N[C@@H](CCCCN)C(=O)N[C@@H](CC(=O)O)C(=O)N[C@@H](CCCCN)C(=O)N[C@@H](CC(=O)O)C(=O)N[C@@H](CC(N)=O)C(=O)N[C@H](C(=O)N[C@@H](C)C(=O)N1CCC[C@H]1C(=O)N[C@@H](CCCNC(=N)N)C(=O)N[C@@H](CO)C(=O)N[C@@H](CCCCN)C(=O)N[C@H](C(=O)N[C@@H](CO)C(=O)N1CCC[C@H]1C(=O)N[C@@H](CCC(N)=O)C(=O)NCC(=O)N[C@@H](Cc1ccc(O)cc1)C(N)=O)[C@@H](C)CC)C(C)C)[C@@H](C)O (stereo partly shown) [Compound 39] (X1-AHQIYQFTDKDKDNVAPRSKISPQGY-NH2),competitive binding potential to ATIII (in words),conserved
